These are yes or no findings as the source states them, for the method shown. Some binding calls cover weakened binding; strength is not graded here.
Legend:
[1] = target: T1, tissue-deposited CRP (human (endogenous in burn wound, skeletal muscle and carotid plaque tissue)), P02741; assay: accessibility of the intrasubunit disulfide bond to DTT; tissue lysates with or without 10 mM DTT, 37 °C, 2 h, 25 mM Tris-HCl pH 7.4, 150 mM NaCl, 2 mM CaCl2; NEM; non-reducing SDS-PAGE; DTT reduces mCRP but not pCRP/pCRP*; settings: remark: other sources report otherwise
T1 chain: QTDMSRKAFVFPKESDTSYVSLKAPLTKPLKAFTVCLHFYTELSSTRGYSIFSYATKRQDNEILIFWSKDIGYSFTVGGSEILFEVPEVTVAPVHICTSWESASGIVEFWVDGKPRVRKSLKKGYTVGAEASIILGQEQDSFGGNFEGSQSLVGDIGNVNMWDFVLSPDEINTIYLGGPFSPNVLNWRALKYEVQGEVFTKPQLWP

[2] = target: T2, pentameric C-reactive protein (human), P02741; assay: accessibility of the intrasubunit disulfide bond to DTT; pCRP in the presence of PC/LPC liposomes or microvesicles, 10 mM DTT, 37 °C; non-reducing SDS-PAGE; control mCRP reduced; both purified; settings: remark: other sources report otherwise
T2 chain: T1 chain

B1: tissue-deposited CRP, P02741 19-224 (natural protein)
chain: T1 chain
Which binding [1] does the source give for B1 here?
Its binding is “binds”.

B2: pentameric C-reactive protein, P02741 19-224 (natural protein)
chain: T1 chain
For B2, which binding [2] is on record?
The binding was “binds”.
